Publication PMC10321483 (Chemical Science, 2023)
Some entries of the source have several records that differ or are many. The list is limited to them. There may be further records. Values that stand side by side differ for a reason that is not stated; dose, time, organism, isomer or construct need not be as stated for each record.

Assay: Intrinsic thiol reactivity (kchem), competition with probe 2 for L-glutathione
Conditions: Table S10 known cyanating compounds; unit printed in b38 only

## N#Cn1ccnc1 [Compound 41, reference compound]
  kchem (apparent intrinsic thiol reactivity): 3.69 ± 0.11 M^−1 s^−1 and 0.90 M^−1 s^−1
